# Assay results reported in PubChem BioAssay AID2685 (National Center for Advancing Translational Sciences (NCATS), 2010).
# Out of some 320,000 compounds screened, about 2,100 (0.66%) were called active. This list was built around the results that the source calls inconclusive (neither active nor inactive); the mix of calls is not that of the screen. Calls come from the whole dose curve; as a rule, active = well fitted inhibition curve with a large enough effect in the signal ratio, with a control signal flat (not every such curve was filed as active); inconclusive = small, poorly fitted or top-dose-only effect, or effect the other way, or a change in a side signal; inactive = flat fitted curve, though single readings scatter; the % refers to the signal ratio. Potencies beside an inconclusive call are fits to weak or partial responses and may not hold up.
# Experiment: qHTS Assay for Lipid Storage Modulators in Drosophila S3 Cells
# Conditions: BODIPY lipid droplet fluorescence, 18-24 h, cells fed with added oleic acid; lipid storage change, negative = inhibition: at 46.1 µM (top of the series) unless noted
# Outline: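 Drosophila S3 cells got compounds at several concentrations plus oleic acid (400 uM solution). Laser-scanning cytometry with 488 nm excitation read lipid droplets at 500-530 nm and cells at 575-640 nm. Percent activity was relative to 20 uM Triacsin C.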
# % is set by controls: 0 for no effect and ±100 for the full control effect; potency is the fitted concentration of half-maximal effect.
SMILES,Potency,"lipid storage change, negative = inhibition"
O=C(c1c(F)cccc1F)N1CCCC(c2nc(-c3ccc(F)cc3)no2)C1 (stereo not given),"inconclusive: 18.4 µM [falling, single point]",–
Cc1nnc(NS(=O)(=O)c2ccc(N)cc2)s1,–,inconclusive: -0.0344%
CCN(CC)S(=O)(=O)c1ccc(NC(=O)c2ccc(NS(C)(=O)=O)cc2)cc1,"inconclusive: 20.6 µM [activator, partial curve, poor fit]",–
COc1cccc(-c2c(C(=O)N/N=C/C3CC=CCC3)nnn2-c2nonc2N)c1 (stereo not given),–,inconclusive: 53.5%
C=CCNC(=O)C1CCCN(S(C)(=O)=O)C1 (stereo not given),–,inconclusive: 2.48%
O=C(NCC1CCCO1)c1cc([N+](=O)[O-])ccc1N1CCC(Cc2ccccc2)CC1 (stereo not given),"inconclusive: 0.0046 µM [activator, full curve, poor fit]",–
CCCC(=O)Nc1ccc(C(=O)NCC2CCCO2)cc1 (stereo not given),–,inconclusive: 0.0551%
Cc1nc(C)c(C(=O)C2=C(O)C(=O)N(CCN3CCOCC3)C2c2ccco2)s1 (stereo not given),"inconclusive: 6.51 µM [falling, single point]",–
O=C(Nc1ccc(F)cc1)C1CCCCC1,"inconclusive: 20.6 µM [cytotoxic, partial curve, poor fit]",–
Cc1ccccc1C(=O)NC(NCc1ccco1)C(Cl)(Cl)Cl (stereo not given),–,inconclusive: -29.7%
O=C(CCNS(=O)(=O)c1c(Cl)cccc1Cl)N1CCCC1,–,inconclusive: 55.6%
COc1ccc(CCC(=O)Nc2ccc(C(=O)c3ccncc3)cc2)cc1,–,inconclusive: -21%
CC1CCN(C(=O)c2ccccc2NC(=O)c2cccs2)CC1,"inconclusive: 29.1 µM [rising, single point]",–
CC(=O)Nc1ccc(C(=O)Nc2ccc(S(=O)(=O)Nc3nccc(C)n3)cc2)cc1,–,inconclusive: 8.92%
O=C(COc1ccc(S(=O)(=O)N2CCOCC2)cc1Cl)N1CCOCC1,–,inconclusive: 10%
CC(C)(C)NC(=O)CSc1nc(O)cc(=O)n1-c1ccccc1,–,inconclusive: -146%
COc1ccc(-n2nnnc2SC(C)C(=O)NC2CCCC2)cc1 (stereo not given),–,inconclusive: 26.2%
Cc1nnsc1NC(=O)OCCCl,–,inconclusive: 12.8%
COC(=O)c1ccccc1S(=O)(=O)Nc1ccc(OC)nc1,–,inconclusive: 44.5%
CN(Cc1ccccc1)C(=O)COC(=O)c1cc(S(=O)(=O)N(C)C)ccc1N1CCCC1,–,inconclusive
O/N=C/c1ccccc1OCc1ccccc1Cl,–,inconclusive: -26%
CCOc1cccc(SCc2noc(C(=O)NCCOC)c2C(=O)O)c1,–,inconclusive: -37.9%
O=c1cc(O)c2sc3nc(-c4cccnc4)cc(C(F)(F)F)c3c2[nH]1,"inconclusive: 1.3 µM [activator, full curve, poor fit]",–
CCOC(=O)N1CCN(C(=O)C(NC(=O)c2ccco2)C(C)C)CC1 (stereo not given),–,inconclusive: 11.9%
CCC(C)(C)c1ccc(Oc2ccc(N)cc2)cc1,–,inconclusive: 26.5%

# Record cards, from the list above. Order of values: Potency | lipid storage change, negative = inhibition
# O=C(c1c(F)cccc1F)N1CCCC(c2nc(-c3ccc(F)cc3)no2)C1 (stereo not given) as listed: inconclusive: 18.4 µM [falling, single point] | –
# CC1CCN(C(=O)c2ccccc2NC(=O)c2cccs2)CC1 as listed: inconclusive: 29.1 µM [rising, single point] | –
# COc1ccc(CCC(=O)Nc2ccc(C(=O)c3ccncc3)cc2)cc1 as listed: – | inconclusive: -21%
# CCC(C)(C)c1ccc(Oc2ccc(N)cc2)cc1 as listed: – | inconclusive: 26.5%

# The listing continues:

SMILES,Potency,"lipid storage change, negative = inhibition"
Cc1ccccc1Nc1nc(=O)c2cc([N+](=O)[O-])ccc2s1,"inconclusive: 25.9 µM [falling, single point]",–
O=C(NCCc1cccc(Cl)c1)c1ccc(OC2CCN(Cc3ccccn3)CC2)cc1,"inconclusive: 29.1 µM [falling, single point]",–
CCCOc1cccc(C2/C(=C(/O)c3ccncc3)C(=O)C(=O)N2CCCN(C)C)c1 (stereo not given),–,inactive
O=C1c2ccccc2C(=O)N1CCCn1nnc(-c2ccc(N3CCOCC3)cc2)n1,–,inconclusive: 12.8%
CCC(NC(=O)NCc1ccc2c(c1)OCO2)(C(F)(F)F)C(F)(F)F,"inconclusive: 7.31 µM [activator, partial curve]",–
COc1ccc(N2CCN(CC(=O)Nc3ccccc3C(=O)NCc3ccccc3)CC2)cc1,"inconclusive: 11.6 µM [activator, partial curve]",–
CN(C(=O)CSc1nnc(C2CC2)n1C)C1CCCc2ccccc21 (stereo not given),–,inconclusive
CC(Oc1ccccc1)C(=O)NC1CC(C)(C)NC(C)(C)C1 (stereo not given),"inconclusive: 25.9 µM [cytotoxic, partial curve, poor fit]",–
Cc1ccc(F)cc1NC(=O)c1c(-c2ccccc2)noc1C,"inconclusive: 0.116 µM [activator, full curve, poor fit]",–
CCCCOc1ccc(CSc2nnc(C)n2N)cc1[N+](=O)[O-],–,inconclusive: 1.56%
O=C(CCNS(=O)(=O)c1ccccc1)Nc1ccccc1,"inconclusive: 0.651 µM [activator, partial curve, poor fit]",–
O=C(CS(=O)(=O)c1ccccc1)Nc1ccc(S(=O)(=O)Nc2ccccn2)cc1,–,inconclusive: 13.5%
Cc1cccc(C(=O)NNC(=O)CSc2nnc(C3CC3)n2C)c1,–,inconclusive: -88.9%
CC(=O)N1CCC(N(C(=O)Nc2c(F)cccc2F)C(C)C)CC1,"inconclusive: 2.91 µM [activator, single point]",–
CCCC(CCC)C(=O)Nc1ccc2c(c1)N(C(=O)CCN1CCN(C)CC1)c1ccccc1CC2,–,inconclusive: 5.83%
O=C(C1CC(=O)N(c2ccc(Cl)cc2)C1)N1CCN(Cc2ccc3c(c2)OCO3)CC1 (stereo not given),"inconclusive: 29.1 µM [falling, partial curve, poor fit]",–
CN1CCN(S(=O)(=O)c2ccc(SCCOc3ccc(Cl)cc3)nc2)CC1,"inconclusive: 29.1 µM [falling, single point]",–
O=c1c2c3n(c(=S)nc2[nH]n1-c1ccccc1)CCCCC3,–,inconclusive: 1.38%
Oc1c(Br)cc2oc3c(c2c1CNCc1ccccc1)CCCC3,–,inconclusive: -0.657%
CC(C)C(C(=O)Nc1nccs1)c1ccc(Cl)cc1 (stereo not given),–,inconclusive: -1.95%
COc1ccc([N+](=O)[O-])cc1N1C(=O)c2cccnc2C1=O,–,inconclusive: 52.4%
O=C(Cn1nc(-c2cccc(Cl)c2)ccc1=O)Nc1cccnc1,–,inconclusive: 9.81%
COc1cc2c(cc1OC)CN(CC(=O)Nc1ccc(F)cc1)CC2,–,inconclusive: 14.6%
O=C(Nc1ccccc1Cl)NC1(C(=O)NCc2ccncc2)CCCCC1,–,inconclusive: -69.4%
CC(NC(=O)/C=C/c1ccccc1[N+](=O)[O-])C1CC2CCC1C2 (stereo not given),–,inconclusive: -36.5%

SMILES,Potency,"lipid storage change, negative = inhibition"
CC1CN=C2C(C(=O)Nc3ccccc3)=C(O)CC(c3ccccc3)N21 (stereo not given),–,inconclusive: -26.4%
Cc1ccc(C)c(NC(=S)N2CCC(NC(=O)C3CCCCC3)CC2)c1,"inconclusive: 5.8 µM [activator, single point]",–
c1ccc2c3c([nH]c2c1)-c1[nH]ncc1CC3,"inconclusive: 29.1 µM [activator, partial curve, poor fit]",–
CCn1c2ccccc2c2cc(NC(=O)c3ccc(C)c([N+](=O)[O-])c3)ccc21,"inconclusive: 0.461 µM [activator, full curve]",–
CC1CCCC(C)N1C(=O)CSc1nnc(C2CCCCC2)o1 (stereo not given),–,inconclusive: -43.8%
CC(NC(=O)CCSCc1ccccc1F)c1ccccc1 (stereo not given),–,inconclusive: -0.845%
Cc1cc2c(cc1S(=O)(=O)Nc1ccc(F)cc1)n(C)c(=O)c(=O)n2C,"inconclusive: 5.17 µM [falling, partial curve, poor fit]",–
COc1ccc(NC(=O)CN(C)C(=O)c2cc(-c3cccs3)nn2-c2ccccc2)cc1,"inconclusive: 6.51 µM [falling, single point]",–
COc1ccc2[nH]c(C(=O)N/N=C/c3ccc(O)cc3O)cc2c1,"inconclusive: 5.8 µM [falling, partial curve, poor fit]",–
O=C(Nc1ccncc1)c1cncc(Br)c1,–,inconclusive: 58.9%
COc1ccc(CCN2C(=O)CSC2=Nc2ccc(C)cc2C)cc1OC,"inconclusive: 3.66 µM [activator, full curve, poor fit]",–
C=CCN(CC=C)CCOc1cccc(Oc2ccccc2)c1,–,inconclusive: -15.3%
O=S(=O)(c1ccc2ccccc2c1)N(CC1CO1)c1ccccc1 (stereo not given),"inconclusive: 0.0206 µM [falling, full curve, poor fit]",–
COc1ccccc1N1CCN(C2CCCN(C(=O)CCc3c(C)noc3C)C2)CC1 (stereo not given),"inconclusive: 16.4 µM [falling, partial curve, poor fit]",–
CCOC(=O)CC1Sc2ccccc2NC1=S (stereo not given),–,inconclusive: -11.7%
COC(=O)c1ccc(CSc2nnc(Nc3cccc(OC)c3)s2)o1,"inconclusive: 5.8 µM [activator, partial curve]",–
Cc1nnc(NC(=O)c2oc3c(ccc4ccccc43)c2C)s1,–,inconclusive: -6.04%
Brc1ccc(CSc2nnc(Cc3c[nH]c4ccccc34)o2)cc1,–,inconclusive: 88.8%
O=C(Cn1nc(-c2cccs2)ccc1=O)Nc1ccc(Br)cc1,–,inconclusive: -65.5%
COc1cc(-c2nnc3n2CCCCC3)cc(OC)c1OC,–,inconclusive: -4.72%
CC1(C)CC(=O)c2cc(C(=O)NC3CCSC3=O)c(=O)n(-c3ccc(Cl)cc3)c2C1 (stereo not given),"inconclusive: 6.51 µM [rising, partial curve]",–
Cc1ccc(CCNC(=O)CC(C)CC2=NS(=O)(=O)c3ccccc3N2)cc1 (stereo not given),"inconclusive: 6.51 µM [activator, single point]",–
Cc1ccc(Cn2nc(C)c(C(=O)NCC(c3cccs3)N3CCOCC3)c2Cl)cc1 (stereo not given),–,inconclusive: 11.8%
CCOC(=O)CC(=O)CSc1ncnc2c1cnn2-c1ccccc1,–,inconclusive: 19.6%
O=S(=O)(NCc1ccco1)N1CCOCC1,–,inconclusive: -11%
